Assay results taken from PMC10250397.
These are yes or no findings as the source states them, for the method shown. In cells and extracts the contact can be indirect. Some binding calls cover weakened binding; strength is not graded here. One block for each molecule: values may come before it.

Protein sequences, listed by entry. Tags and fused reporters are not part of them. Lines headed by an entry give the natural chain unless they say otherwise; changes in a name come on top. Chains listed by the source or under a name are the forms on record and can include a tag or linker.
UniProt P16615: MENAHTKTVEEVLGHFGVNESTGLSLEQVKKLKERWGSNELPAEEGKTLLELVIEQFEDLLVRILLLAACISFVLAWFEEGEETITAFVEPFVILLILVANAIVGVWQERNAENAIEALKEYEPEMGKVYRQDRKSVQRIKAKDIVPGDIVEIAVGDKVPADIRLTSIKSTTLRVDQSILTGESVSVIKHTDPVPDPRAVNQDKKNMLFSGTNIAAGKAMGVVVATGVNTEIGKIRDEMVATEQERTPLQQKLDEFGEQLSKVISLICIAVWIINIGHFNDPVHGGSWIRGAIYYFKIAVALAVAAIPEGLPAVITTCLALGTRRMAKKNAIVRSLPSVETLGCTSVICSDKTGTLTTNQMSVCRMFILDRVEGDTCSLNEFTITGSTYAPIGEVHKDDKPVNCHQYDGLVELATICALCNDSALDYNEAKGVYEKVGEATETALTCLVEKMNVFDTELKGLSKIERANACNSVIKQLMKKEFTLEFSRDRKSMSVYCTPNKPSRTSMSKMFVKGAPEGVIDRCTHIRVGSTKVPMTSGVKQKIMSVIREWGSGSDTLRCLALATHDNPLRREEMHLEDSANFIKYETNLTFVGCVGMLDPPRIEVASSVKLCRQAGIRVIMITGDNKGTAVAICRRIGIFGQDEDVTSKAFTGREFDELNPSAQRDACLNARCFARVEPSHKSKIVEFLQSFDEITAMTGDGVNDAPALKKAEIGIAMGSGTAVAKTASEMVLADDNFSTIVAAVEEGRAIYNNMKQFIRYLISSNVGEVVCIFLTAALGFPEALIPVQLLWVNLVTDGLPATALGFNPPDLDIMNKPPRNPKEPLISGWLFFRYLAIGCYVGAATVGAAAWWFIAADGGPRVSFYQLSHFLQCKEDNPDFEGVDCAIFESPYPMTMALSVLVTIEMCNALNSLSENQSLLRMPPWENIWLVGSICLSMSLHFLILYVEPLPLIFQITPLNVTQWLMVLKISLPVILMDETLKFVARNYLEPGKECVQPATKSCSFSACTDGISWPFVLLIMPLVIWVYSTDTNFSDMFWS
human SERCA2a wild type, AAV9 rescue in cardiac SERCA2-KD mice (P16615, form named): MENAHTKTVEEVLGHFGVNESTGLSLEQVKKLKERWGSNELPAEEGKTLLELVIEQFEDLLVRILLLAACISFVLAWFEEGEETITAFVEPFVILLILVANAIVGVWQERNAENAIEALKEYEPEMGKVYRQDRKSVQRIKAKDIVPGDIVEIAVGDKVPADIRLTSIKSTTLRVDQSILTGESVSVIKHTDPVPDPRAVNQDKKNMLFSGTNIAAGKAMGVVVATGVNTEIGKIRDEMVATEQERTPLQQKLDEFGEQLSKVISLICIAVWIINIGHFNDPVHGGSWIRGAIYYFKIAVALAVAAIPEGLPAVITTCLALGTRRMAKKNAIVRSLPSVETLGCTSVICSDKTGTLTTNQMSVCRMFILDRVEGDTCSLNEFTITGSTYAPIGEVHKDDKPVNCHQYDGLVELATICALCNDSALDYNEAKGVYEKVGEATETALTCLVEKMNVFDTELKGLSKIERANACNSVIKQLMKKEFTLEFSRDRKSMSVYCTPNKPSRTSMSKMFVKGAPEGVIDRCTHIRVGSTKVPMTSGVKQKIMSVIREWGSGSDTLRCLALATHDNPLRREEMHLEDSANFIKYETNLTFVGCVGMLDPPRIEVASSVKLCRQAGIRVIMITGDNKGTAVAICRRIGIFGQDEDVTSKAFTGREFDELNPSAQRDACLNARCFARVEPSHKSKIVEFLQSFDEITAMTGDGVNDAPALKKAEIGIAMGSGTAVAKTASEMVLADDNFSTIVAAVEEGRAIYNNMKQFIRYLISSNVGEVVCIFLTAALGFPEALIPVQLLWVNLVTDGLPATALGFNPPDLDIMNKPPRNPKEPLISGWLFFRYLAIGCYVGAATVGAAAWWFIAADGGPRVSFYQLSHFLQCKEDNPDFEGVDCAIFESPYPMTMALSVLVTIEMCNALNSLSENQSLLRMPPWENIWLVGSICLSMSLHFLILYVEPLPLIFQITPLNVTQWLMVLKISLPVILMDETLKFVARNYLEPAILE
human SERCA2a S663A phosphoresistant mutant, AAV9 rescue in cardiac SERCA2-KD mice (P16615, form named): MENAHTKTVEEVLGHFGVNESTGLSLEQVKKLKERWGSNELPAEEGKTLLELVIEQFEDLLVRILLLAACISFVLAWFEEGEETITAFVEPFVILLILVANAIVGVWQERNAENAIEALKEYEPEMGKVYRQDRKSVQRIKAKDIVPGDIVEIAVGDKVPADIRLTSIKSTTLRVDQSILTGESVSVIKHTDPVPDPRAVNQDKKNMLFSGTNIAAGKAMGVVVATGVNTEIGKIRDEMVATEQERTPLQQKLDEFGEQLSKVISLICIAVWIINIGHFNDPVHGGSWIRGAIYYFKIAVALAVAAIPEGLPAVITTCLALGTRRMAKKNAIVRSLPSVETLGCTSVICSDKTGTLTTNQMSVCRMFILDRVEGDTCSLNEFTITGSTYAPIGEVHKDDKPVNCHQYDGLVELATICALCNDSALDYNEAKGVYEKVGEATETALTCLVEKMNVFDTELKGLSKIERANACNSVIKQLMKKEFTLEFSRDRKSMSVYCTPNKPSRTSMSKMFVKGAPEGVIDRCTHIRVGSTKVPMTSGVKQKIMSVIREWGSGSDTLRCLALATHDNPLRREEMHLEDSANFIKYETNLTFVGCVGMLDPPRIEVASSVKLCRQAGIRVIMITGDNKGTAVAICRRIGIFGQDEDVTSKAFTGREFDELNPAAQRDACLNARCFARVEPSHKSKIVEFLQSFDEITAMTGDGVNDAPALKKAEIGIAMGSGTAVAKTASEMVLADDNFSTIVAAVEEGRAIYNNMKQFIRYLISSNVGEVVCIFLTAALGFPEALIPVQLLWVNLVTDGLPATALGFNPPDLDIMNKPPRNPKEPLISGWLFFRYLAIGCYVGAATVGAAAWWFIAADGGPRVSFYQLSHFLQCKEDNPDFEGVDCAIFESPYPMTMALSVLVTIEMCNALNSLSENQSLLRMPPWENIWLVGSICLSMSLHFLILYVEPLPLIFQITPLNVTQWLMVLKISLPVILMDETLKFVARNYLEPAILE
human SERCA2a S663E phosphomimetic mutant, AAV9 rescue in cardiac SERCA2-KD mice (P16615, form named): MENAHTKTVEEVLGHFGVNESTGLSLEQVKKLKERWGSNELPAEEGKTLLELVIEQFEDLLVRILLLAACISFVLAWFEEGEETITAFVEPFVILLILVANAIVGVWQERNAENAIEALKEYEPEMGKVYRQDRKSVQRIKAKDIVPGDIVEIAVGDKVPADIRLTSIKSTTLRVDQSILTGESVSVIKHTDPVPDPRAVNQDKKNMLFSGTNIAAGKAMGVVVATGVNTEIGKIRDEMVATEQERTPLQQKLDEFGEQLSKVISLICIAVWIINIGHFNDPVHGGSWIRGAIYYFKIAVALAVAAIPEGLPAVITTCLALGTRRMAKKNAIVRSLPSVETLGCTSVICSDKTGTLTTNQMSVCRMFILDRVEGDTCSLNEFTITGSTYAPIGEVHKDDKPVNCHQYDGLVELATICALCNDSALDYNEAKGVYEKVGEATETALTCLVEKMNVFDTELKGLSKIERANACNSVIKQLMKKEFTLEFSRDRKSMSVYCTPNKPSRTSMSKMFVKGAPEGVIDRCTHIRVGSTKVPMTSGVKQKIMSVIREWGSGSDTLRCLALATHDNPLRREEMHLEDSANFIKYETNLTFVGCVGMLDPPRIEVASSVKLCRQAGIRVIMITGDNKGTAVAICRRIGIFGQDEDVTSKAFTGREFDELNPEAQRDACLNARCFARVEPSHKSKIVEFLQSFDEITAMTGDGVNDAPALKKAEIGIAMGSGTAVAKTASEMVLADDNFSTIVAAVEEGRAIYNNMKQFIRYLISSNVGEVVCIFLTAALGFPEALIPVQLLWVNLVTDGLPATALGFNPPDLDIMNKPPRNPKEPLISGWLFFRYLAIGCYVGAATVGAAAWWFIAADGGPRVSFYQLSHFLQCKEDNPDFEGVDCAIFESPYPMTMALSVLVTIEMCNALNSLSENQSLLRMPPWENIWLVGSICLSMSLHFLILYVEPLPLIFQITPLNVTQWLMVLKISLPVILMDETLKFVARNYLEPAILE
UniProt P49841: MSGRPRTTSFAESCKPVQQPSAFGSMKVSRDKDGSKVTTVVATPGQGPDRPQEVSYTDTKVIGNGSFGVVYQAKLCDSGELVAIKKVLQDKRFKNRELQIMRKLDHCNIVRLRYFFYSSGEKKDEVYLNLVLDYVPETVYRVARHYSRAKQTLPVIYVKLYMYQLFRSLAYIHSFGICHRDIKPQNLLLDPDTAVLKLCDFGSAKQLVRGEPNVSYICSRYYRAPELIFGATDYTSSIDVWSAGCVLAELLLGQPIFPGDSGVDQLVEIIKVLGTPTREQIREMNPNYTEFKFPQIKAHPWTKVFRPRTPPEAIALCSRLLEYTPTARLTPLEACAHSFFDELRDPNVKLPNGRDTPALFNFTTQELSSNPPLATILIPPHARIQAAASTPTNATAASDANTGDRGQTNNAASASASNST

What was measured:
[1] = biological target: sarcoplasmic/endoplasmic reticulum Ca2+ ATPase (SERCA2), endogenous in HEK293-T cells (human (endogenous in HEK293-T)) (UniProt P16615); experiment: co-IP; lysates of HEK293-T cells, basal and after 1 h hypoxia followed by 30 min reoxygenation; 200 µg lysate precipitated with anti-SERCA2 antibody and Protein G magnetic beads, TBS with 1 mM EDTA and 1.0% Triton X-100, overnight at 4 °C; immunoblot
[2] = biological target: human SERCA2a wild type, AAV9 rescue in cardiac SERCA2-KD mice (human) (UniProt P16615); experiment: co-IP; lysates of the cardiac area at risk after in vivo ischemia-reperfusion of SERCA2-KD mice rescued with SERCA2 WT, S663A or S663E; precipitated with anti-SERCA2 antibody, TBS with 1 mM EDTA and 1.0% Triton X-100, 4 °C; immunoblot for PLN, quantified
[3] = biological target: human SERCA2a S663A phosphoresistant mutant, AAV9 rescue in cardiac SERCA2-KD mice (human) (UniProt P16615); experiment: as above
[4] = biological target: human SERCA2a S663E phosphomimetic mutant, AAV9 rescue in cardiac SERCA2-KD mice (human) (UniProt P16615); experiment: as above

- binding [1]: binds
Molecule: glycogen synthase kinase 3 beta (GSK3β), endogenous in HEK293-T cells (from UniProt P49841 1-420) (enzyme)

- binding [2]: binds
- binding [3]: binds
- binding [4]: binds
B1: phospholamban (PLN), endogenous in mouse heart (protein, UniProt P61014 1-52)
chain: MEKVQYLTRSAIRRASTIEMPQQARQNLQNLFINFCLILICLLLICIIVMLL
